Measurements as given in patent US9585875B2, “TRPM8 antagonists” (Dompé S.P.A., priority 2011, dated 2017).
Structures can show the parent of a compound that is named as a salt. Some entries share one result that the patent states for a list of compounds.

The chains behind the UniProt entries cited, without tags or fusion partners.
UniProt Q7Z2W7, whole entry: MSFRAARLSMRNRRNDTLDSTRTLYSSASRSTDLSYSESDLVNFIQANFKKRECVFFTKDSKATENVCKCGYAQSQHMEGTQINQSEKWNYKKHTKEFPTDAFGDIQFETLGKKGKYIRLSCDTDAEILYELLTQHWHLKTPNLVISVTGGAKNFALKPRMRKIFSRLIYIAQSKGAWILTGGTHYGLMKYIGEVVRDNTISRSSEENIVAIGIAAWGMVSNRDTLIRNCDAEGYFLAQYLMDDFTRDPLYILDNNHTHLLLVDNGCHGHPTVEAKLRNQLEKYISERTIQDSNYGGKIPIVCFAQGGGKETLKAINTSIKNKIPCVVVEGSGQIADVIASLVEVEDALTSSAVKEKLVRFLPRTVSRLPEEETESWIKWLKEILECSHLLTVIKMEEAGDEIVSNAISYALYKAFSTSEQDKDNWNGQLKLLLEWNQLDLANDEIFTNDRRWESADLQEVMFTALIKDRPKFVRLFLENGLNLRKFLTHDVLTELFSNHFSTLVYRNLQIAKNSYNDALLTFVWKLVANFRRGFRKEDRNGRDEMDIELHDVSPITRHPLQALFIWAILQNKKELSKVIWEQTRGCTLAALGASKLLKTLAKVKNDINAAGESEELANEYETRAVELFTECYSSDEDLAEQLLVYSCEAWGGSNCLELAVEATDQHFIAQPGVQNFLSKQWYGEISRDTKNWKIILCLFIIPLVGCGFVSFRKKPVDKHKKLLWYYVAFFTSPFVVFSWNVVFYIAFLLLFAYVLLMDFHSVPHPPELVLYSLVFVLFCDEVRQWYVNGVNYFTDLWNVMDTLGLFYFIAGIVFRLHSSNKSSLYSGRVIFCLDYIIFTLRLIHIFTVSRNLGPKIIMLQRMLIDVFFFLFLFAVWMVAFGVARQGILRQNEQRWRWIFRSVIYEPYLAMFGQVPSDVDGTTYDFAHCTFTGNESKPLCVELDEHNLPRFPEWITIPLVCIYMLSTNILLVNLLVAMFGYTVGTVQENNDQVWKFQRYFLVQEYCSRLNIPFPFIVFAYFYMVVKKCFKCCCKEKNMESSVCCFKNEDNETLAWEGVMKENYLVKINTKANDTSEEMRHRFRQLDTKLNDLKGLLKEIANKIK

The compounds below were run against TRPM8 (Homo sapiens, UniProt Q7Z2W7) (assay: HTS cell-based Ca2+ mobilization assay (FLIPR TETRA) in HEK293/hTRPM8 cells, agonist Cooling Agent 10). Conditions: HEK293/hTRPM8, Cooling Agent 10 at EC80.
Parameters: expressed in transfected cells
Description: A functional cell-based assay for the identification of TRPM8 receptor antagonists, optimised to allow high throughput screening at FLIPR^TETRA, was developed in HEK293 cells by stable pure clone selection and functional characterization with a fluorescent calcium sensitive dye.
TRPM8 was cloned into the multiple cloning site of pcDNA3 mammalian expression vector; the obtained construct pcDNA3/hTRPM8 was fully sequence verified and used for the transfection of HEK293 cell line. HEK293 cells stably transfected with TRPM8 gene were maintained in Minimum essential medium. The cells were transfected with the pcDNA3/hTRPM8 vector by electroporation and then selected with medium containing 0.8 mg/ml G418 for 10-15 days.
The following commercial compounds were used as ligands:
Activator: Cooling Agent 10 (Takasago CAS N. 87061-04-9)
Blocker: Capsazepine (SIGMA cat #D_5879)
The experimental activities were performed using FLIPR^TETRA instruments.
HEK293 cells stably transfected with TRPM8 gene were maintained in Minimum essential medium.
The TRPM8 cell line was analysed for the response to a library of compounds using a Ca^2+ mobilization-dependent fluorescence signal in 384 wells microtiter plate format. The analysis was performed using the FLIPR^TETRA (MDC) with the ICCD Camera.
The execution of the assay involved the use of three microtiter plates:
1. Assay plate, containing cells loaded with dye and prepared as follows:
Cells were seeded at 15000 c/well in Poly-D-Lysine coated 384 wells Microtiter Plates in complete medium (25 μl/well).
24 h after seeding, the cell plates were washed with Tyrode assay buffer by the Microplate Washer and 10 μL of Tyrode assay buffer was left in each well.
Cells were then loaded with 10 μL/well of the Fluo-4 NW dye solution by CyBi®-Well pipettor. Each bottle of Fluo4-NW dye (Molecular Probes cat. #F36206, component A) was re-suspended in 8 mL of Tyrode assay buffer and supplemented with 100 μL of water-soluble probenecid (MolecularProbes cat.#F36206, component B).
Dye loaded cell plates were incubated for 1 h at room temperature.
2. Compound Dilution Plate (FIG. 1), containing diluted test compounds, formulated as follows: […]
Column 1: wells containing Assay Buffer plus DMSO 0.5% final
Columns 3-22: wells containing Assay Buffer plus 0.5% DMSO final. To these wells the compounds to be tested were added at 3× concentration.
Column 23: alternating wells of Max Signal Control in second injection (Assay buffer) and Min Signal Control in second injection (Antagonist Capsazepine IC100, 50 μM) in Assay buffer plus 0.5% DMSO final;
Column 24: wells containing Capsazepine (Antagonist) at 8 concentrations in duplicate at final concentrations of 50 μM, 25 μM, 6.25 μM, 3.15 μM, 1.56 μM, 780 nM, […] in Assay buffer plus 0.5% DMSO final.
3. Activator Plate (FIG. 2), containing agonist Cooling Agent 10 at EC80, formulated as follows:
Column 1: Cooling Agent 10 (Agonist) at 8 concentrations dose response in duplicate at final concentrations of 100 μM, 31.6 μM, 10 μM, 3.16 μM, 1 μM, 316 nM, 100 nM, 31.6 nM in Assay buffer;
Columns 2-24: Cooling Agent 10 (Agonist) at EC80 (3 fold concentrated, 20 μM final) in Assay buffer.
The test was carried out according to a procedure comprising the following steps:
1. The samples contained in the wells of the Compound Plate were added to the corresponding wells of the Assay Plate by the FLIPR^TETRA, thus resulting in the addition in Columns 3-22 of the test compounds at 3× concentration to the cells of the assay plates. No mixing was performed in the assay wells and the signal of the emitted fluorescence was recorded for 300 seconds. 2. The samples contained in the wells of the Activator Plate were added to the corresponding wells of the Assay Plate by the FLIPR^TETRA, thus resulting in the addition in Columns 3-22 of the Assay Plate of the agonist compound in addition to the test compounds. The signal of the emitted fluorescence was recorded for 180 seconds.

IC50, < 30 µM:
O=C(O)c1sc(-c2cccc(F)c2)nc1OCc1cccc(Cl)c1 [Compound 48, 4-[(3-chlorobenzyl)oxy]-2-(3-fluorophenyl)-1,3-thiazole-5-carboxylic acid]
O=C(O)c1sc(-c2ccccc2)nc1OCc1ccccc1Cl [Compound 49, 4-[(2-chlorobenzyl)oxy]-2-phenyl-1,3-thiazole-5-carboxylic acid]
O=C(O)c1sc(-c2ccc(F)cc2)nc1OCc1ccccc1Cl [Compound 50, 4-[(2-chlorobenzyl)oxy]-2-(4-fluorophenyl)-1,3-thiazole-5-carboxylic acid]
O=C(O)c1sc(-c2ccc(Cl)cc2)nc1OCc1ccccc1Cl [Compound 51, 4-[(2-chlorobenzyl)oxy]-2-(4-chlorophenyl)-1,3-thiazole-5-carboxylic acid]
O=C(O)c1sc(-c2cccc(Cl)c2)nc1OCc1ccccc1Cl [Compound 52, 4-[(2-chlorobenzyl)oxy]-2-(3-chlorophenyl)-1,3-thiazole-5-carboxylic acid]
Cc1ccc(-c2nc(OCc3ccccc3Cl)c(C(=O)O)s2)cc1 [Compound 53, 4-[(2-chlorobenzyl)oxy]-2-(4-methylphenyl)-1,3-thiazole-5-carboxylic acid]
O=C(O)c1sc(-c2cccc(F)c2)nc1OCc1ccccc1Cl [Compound 54, 4-[(2-chlorobenzyl)oxy]-2-(3-fluorophenyl)-1,3-thiazole-5-carboxylic acid]
O=C(O)c1sc(-c2ccccc2)nc1OCc1ccc(C(F)(F)F)cc1 [Compound 55, 2-phenyl-4-{[4-(trifluoromethyl)benzyl]oxy}-1,3-thiazole-5-carboxylic acid]
O=C(O)c1sc(-c2cccc(F)c2)nc1OCc1ccc(C(F)(F)F)cc1 [Compound 56, 2-(3-fluorophenyl)-4-{[4-(trifluoromethyl)benzyl]oxy}-1,3-thiazole-5-carboxylic acid]
O=C(Oc1nc(-c2ccccc2)sc1C(=O)O)c1ccc(C(F)(F)F)cc1 [Compound 57, 2-phenyl-4-{[4-(trifluoromethyl)benzoyl]oxy}-1,3-thiazole-5-carboxylic acid]
O=C(Oc1nc(-c2cccc(F)c2)sc1C(=O)O)c1ccc(C(F)(F)F)cc1 [Compound 58, 2-(3-fluorophenyl)-4-{[4-(trifluoromethyl)benzoyl]oxy}-1,3-thiazole-5-carboxylic acid]
Cc1ccc(-c2nc(OC(=O)c3ccc(C(F)(F)F)cc3)c(C(=O)O)s2)cc1 [Compound 59, 2-(4-methylphenyl)-4-{[4-(trifluoromethyl)benzoyl]oxy}-1,3-thiazole-5-carboxylic acid]
COc1nc(-c2ccc(C)cc2)sc1C(=O)O [Compound 60, 4-methoxy-2-(4-methylphenyl)-1,3-thiazole-5-carboxylic acid]
Cc1ccc(-c2nc(OCC(C)C)c(C(=O)O)s2)cc1 [Compound 61, 2-(4-methylphenyl)-4-(2-methylpropoxy)-1,3-thiazole-5-carboxylic acid]
CCOC(=O)c1sc(-c2ccc(F)cc2)nc1NC(=O)OC(C)(C)C [Compound 62, ethyl 4-[(tert-butoxycarbonyl)amino]-2-(4-fluorophenyl)-1,3-thiazole-5-carboxylate]
CCOC(=O)c1sc(-c2ccc(F)cc2)nc1N [Compound 63, ethyl 4-amino-2-(4-fluorophenyl)-1,3-thiazole-5-carboxylate hydrochloride]
CCOC(=O)c1sc(-c2ccc(C)cc2)nc1NC(C)=O [Compound 64, ethyl 4-(acetylamino)-2-(4-methylphenyl)-1,3-thiazole-5-carboxylate]
CCOC(=O)c1sc(-c2ccc(C)cc2)nc1NC(=O)c1ccc(C(F)(F)F)cc1 [Compound 65, ethyl 2-(4-methylphenyl)-4-{[4-(trifluoromethyl)benzoyl]amino}-1,3-thiazole-5-carboxylate]
CCOC(=O)c1sc(-c2ccc(C)cc2)nc1NC(=O)Nc1ccccc1 [Compound 66, ethyl 2-(4-methylphenyl)-4-[(phenylcarbamoyl)amino]-1,3-thiazole-5-carboxylate]
CCCNCCNc1nc(-c2ccc(Cl)cc2)sc1C(=O)OCC [Compound 69, ethyl 2-(4-chlorophenyl)-4-{[2-(propylamino)ethyl]amino}-1,3-thiazole-5-carboxylate]
CCOC(=O)c1sc(-c2ccc(C)cc2)nc1NCCNC [Compound 71, ethyl 4-{[2-(methylamino)ethyl]amino}-2-(4-methylphenyl)-1,3-thiazole-5-carboxylate]
CCOC(=O)c1sc(-c2ccc(-c3ccccc3C(F)(F)F)cc2)nc1NCCN [Compound 72, ethyl 4-[(2-aminoethyl)amino]-2-[2′-(trifluoromethyl)biphenyl-4-yl]-1,3-thiazole-5-carboxylate]
CCOC(=O)c1sc(-c2cccc(-c3ccccc3C(F)(F)F)c2)nc1NCCN [Compound 73, ethyl 4-[(2-aminoethyl)amino]-2-[2′-(trifluoromethyl)biphenyl-3-yl]-1,3-thiazole-5-carboxylate]
CCOC(=O)c1sc(-c2ccc(Cl)cc2)nc1NCCNC1CCCC1 [Compound 74, ethyl 2-(4-chlorophenyl)-4-{[2-(cyclopentylamino)ethyl]amino}-1,3-thiazole-5-carboxylate]
CCOC(=O)c1sc(-c2ccccc2)nc1NCCN1CCCC1 [Compound 75, ethyl 2-phenyl-4-{[2-(pyrrolidin-1-yl)ethyl]amino}-1,3-thiazole-5-carboxylate]
CCOC(=O)c1sc(-c2cccc(F)c2)nc1NCc1ccccc1 [Compound 76, ethyl 4-(benzylamino)-2-(3-fluorophenyl)-1,3-thiazole-5-carboxylate]
CCOC(=O)c1sc(-c2cccc(F)c2)nc1NCc1ccc2c(c1)OCO2 [Compound 77, ethyl 4-[(1,3-benzodioxol-5-ylmethyl)amino]-2-(3-fluorophenyl)-1,3-thiazole-5-carboxylate]
CCOC(=O)c1sc(-c2cccc(F)c2)nc1NCc1cccnc1 [Compound 78, ethyl 2-(3-fluorophenyl)-4-[(pyridin-3-ylmethyl)amino]-1,3-thiazole-5-carboxylate]
Cc1ccc(-c2nc(NCCN)c(C(=O)O)s2)cc1 [Compound 79, 4-[(2-aminoethyl)amino]-2-(4-methylphenyl)-1,3-thiazole-5-carboxylic acid]
CNCCNc1nc(-c2ccc(C)cc2)sc1C(=O)O [Compound 80, 4-{[2-(methylamino)ethyl]amino}-2-(4-methylphenyl)-1,3-thiazole-5-carboxylic acid]
NCCNc1nc(-c2cccc(F)c2)sc1C(=O)O [Compound 81, 4-[(2-aminoethyl)amino]-2-(3-fluorophenyl)-1,3-thiazole-5-carboxylic acid]
O=C(O)c1sc(-c2cccc(F)c2)nc1OCc1ccc(Cl)cc1 [Compound 88, sodium 4-(4-chlorobenzyloxy)-2-(3-fluorophenyl)-1,3-thiazole-5-carboxylate]
Cc1ccc(-c2nc(OCc3ccccc3)c(C(=O)O[C@@H]3C[C@H](C)CC[C@H]3C(C)C)s2)cc1 [Compound 89, (1R,2S,5R)-2-isopropyl-5-methylcyclohexyl-4-(benzyloxy)-2-(4-methylphenyl)-1,3-thiazole-5-carboxylate]
